Results deposited as PubChem BioAssay AID686943 (Drosophila RNAi Screening Center, 2013).

Aim: 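Fly genes whose loss alters ERK activation after insulin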 (primary screen)
Cell system: Drosophila S2R+ haemocyte-like cells expressing YFP-tagged ERK (Rolled)
Reagent: long dsRNA against Drosophila genes
Challenge: insulin stimulation versus unstimulated cells; dose and duration not given
Read-out: 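Per-plate z-scores of phospho-ERK immunostaining normalised to YFP-tagged ERK, measured with and without insulin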
Scale: replicate 1, z-score of dpERK with insulin and replicate 2, z-score of dpERK with insulin: higher = more active ERK per ERK-YFP after insulin; replicate 1, z-score of dpERK under basal conditions: higher = more basal active ERK per ERK-YFP; replicate 1, z-score of ERK-YFP with insulin: higher = more YFP-tagged ERK signal
The screen tested about 23,000 reagents; shown is a random part of those that have a named target and a result. 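Extra replicates exist only for a retested subset of genes; insulin dose and duration not given; both raised and lowered dpERK matter.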 Names joined by + are all predicted targets of the reagent. Not stated in the record: the amount of reagent, the time to read-out.

no.	Target gene	DRSC id	replicate 1, z-score of dpERK with insulin	replicate 2, z-score of dpERK with insulin	replicate 1, z-score of dpERK under basal conditions	replicate 1, z-score of ERK-YFP with insulin
1	SkpD (SKP1-related D)	DRSC22208	0.46	-1.18	-0.39	0.06
2	CG33475	DRSC22943	0.27	0.61	-1.85	-0.49
3	CG4681	DRSC04481	-0.18	0.33	0.13	0.29
4	mus81	DRSC18180	-0.29	0.79	0.44	0.23
5	mus81	DRSC18644	0.04	1.64	0	0.27
6	sens-2 (senseless-2)	DRSC02136	0.86	0.01	-0.01	0.12
7	sens-2 (senseless-2)	DRSC02613	1.39	0.56	0.63	0.34
8	sens-2 (senseless-2)	DRSC21374	-0.67	-1.93	-1.6	-0.27
9	Or74a (Odorant receptor 74a)	DRSC11245	-0.12	-0.43	0.66	0.26
10	CG8929	DRSC07298	0.94	1.09	1.15	0.29
11	CG8929	DRSC22847	0.66	0.52	-1.22	-0.5
12	CG17744	DRSC10286	1.06	0.12	-0.88	0.5
13	raptor	DRSC18359	3.61	2.9	-2.04	-2.38
14	CG11373	DRSC12170	1.05	0.89	-0.08	0.25
15	Rab21	DRSC20968	-0.53	0.46	-0.3	0.87
16	hui (hase und igel)	DRSC05977	0.96	1.09	0.01	-0.81
17	Rtc1	DRSC20285	-0.59	0.2	-0.6	1.43
18	Hr39 (Hormone receptor-like in 39)	DRSC03346	-0.72	-0.02	0.43	1.25
19	cad (caudal)	DRSC03502	-7.87	-6.26	-2.13	-4.41
20	Diedel	DRSC14317	-0.61	-0.02	0.14	0.27
21	bsk (basket)	DRSC03499	-0.24	0.26	1.22	0.21
22	IFT20 + CG10395	DRSC22660	0.29	0.5	1.88	0.05
23	tll (tailless)	DRSC17085	-0.14	-0.1	-0.48	0.54
24	LysP (Lysozyme P)	DRSC08676	0.08	0.9	-0.39	-0.26
25	Spt7	DRSC19997	0.05	0.95	-1.49	-1.67
26	Ude (Uracil-DNA degrading factor)	DRSC15324	0.17	0.72	-0.29	0.74
27	Pkcdelta (Protein kinase C delta)	DRSC19356	0	-0.02	1.52	0.59
28	Pkcdelta (Protein kinase C delta)	DRSC19399	0.73	-0.04	0.8	0.53
29	scyl (scylla)	DRSC11392	-0.49	-0.64	0.68	-0.25
30	NimC4 (Nimrod C4)	DRSC01945	0.06	0.32	0.37	0.18
31	uex (unextended)	DRSC20784	-0.6	-0.35	1.1	2.46
32	uex (unextended)	DRSC20786	-1.87	-3.3	-0.56	5.27
33	SMSr (Sphingomyelin synthase related)	DRSC10998	0.63	-0.8	0.54	-0.67
34	SMSr (Sphingomyelin synthase related)	DRSC10999	-2.99	-0.93	-1.2	-0.07
35	Mks1 (Meckel syndrome, type 1)	DRSC19697	-0.17	0.09	0.64	-0.1
36	Ssl1 (Suppressor of stem-loop mutation)	DRSC11634	0.56	0.11	-0.58	0.76
37	edl (ETS-domain lacking)	DRSC06516	0.32	0.8	-0.64	0.32
38	CG31199	DRSC15284	0.32	-0.08	-0.02	0.27
39	Gr22f (Gustatory receptor 22f)	DRSC00076	0.05	0.43	1.13	-0.53
